Data as given in PubChem BioAssay AID1347423 (Functional Genomics Laboratory (NCATS/FGL), 2020).
Screen size: about 52,000 sequences; about 210 (0.4%) were called active.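 The calls were made as follows: active = gene whose silencing raises cell survival under the drug, median off-target-corrected z-score across its silencing RNAs 2 or more; inactive = the rest.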 The list shows a part of the results.

Experiment: Resistance to Poly (ADP-Ribose) Polymerase inhibitor: Gene Identification via Genome-wide siRNA Screen
Settings: mouse BRCA2 R2336H ES cells, olaparib, CellTiter-Glo viability; active compounds read high
How it was run: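 Genome-wide siRNA screen (3 siRNAs/gene, 20 nM) in mouse ES cells carrying hypomorphic BRCA2 R2336H; olaparib 500 nM added 48 h post-transfection, CellTiter-Glo viability 72 h later. Normalized to plate-median negative control; MAD z-scores, gene median, seed-adjusted.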

Sequence | z-score
GCCAGGUGUGGUGACUCAUTT against 1810034M08Rik | inactive: -0.481
GCUUGUCAUUCUUGUUGUATT against Olfr348 | inactive: 1.17
GGAAUGGAAAAACAAAAAGTT against Matp | inactive: 0.0244
CCUGUAAAGUUCUUGUCGGTT against Ccrl2 | inactive: 0.716
GGUGACCAAAAAAGCUUUATT against Pax9 | inactive: -0.0814
CCUGAACAUGAGUUAAAAGTT against Lmo4 | inactive: 1.56
GGUGUACGAUCUGACCAAGTT against Cyb5 | inactive: -0.141
GGCACCUUUCAGAAAUCCCTT against 4931406B18Rik | inactive: 0.474
GGCUACUUUUUGGAACAUCTT against Uqcrc1 | inactive: -1.18
GGCUGUUCGAGCUAUCCACTT against Ddefl1 | inactive: -0.809
GCUGGAUAUUUCUAAGUAUTT against 4930430A15Rik | inactive: 0.962
GGCAUCCAAUCCUGUGGAGTT against Bcl11a | inactive: -0.311
GGACUUCGAAAGUUUAUCCTT against AI449705 | inactive: 1.93
CCUUGUAUGGAGAUAUUCCTT against 4632417K02 | inactive: -1.8
GCUUGUCGAGAAACUCUGGTT against A330021E22Rik | inactive: 0.659
GGAGUUUGACUCAAUAUCATT against Napb | inactive: 0.653
CCGUUUAACUUGGGCUGAUTT against Reg1 | inactive: 0.779
GGCAUUCCCUGAAUAUCGUTT against Gpx2 | inactive: 0.731
GGUACAGGAAACUCAAAUATT against Lrrc4 | inactive: 0.527
GGUUGAAUUAUACACAAAGTT against 4930425N13Rik | inactive: -0.749
GCCACCUUGUUUCUCGAACTT against 1810008A18Rik | inactive: 0.925
GGCAGUCAGACUUAGAGACTT against Dqx1 | inactive: -0.303
GGUUUUUGUCACUAUAAGCTT against 4921513B05Rik | inactive: 2.66
CCAAAGCCUGAAAUGGUGGTT against Cxcr4 | inactive: 0.733
GGUAUAGAAUGUUUGAUCATT against AA792894 | inactive: 0.00502
GCGUGCAGCCCUCAAUGAATT against Ppp2r5b | active: 1.44

Sequence | z-score
GGGACUCGGGCAGUAUUCATT against Tgm5 | inactive: 3.09
GGCAAAGACAAGAAGCUGUTT against Drap1 | inactive: 1.55
GGAGACUGAGGAAGAAUCUTT against Atcay | inactive: 0.00927
CCUUUCGGACAAAAUAUGUTT against Vnn3 | inactive: 0.459
GCAGUGCACGGAUAACUUCTT against 9430093N24Rik | inactive: 2.3
GAUGGACAGGUUCAUGAUUTT against BC058638 | inactive: -1.43
GGCCUAUGAAAAGUGGCGUTT against Dpysl3 | inactive: 0.378
GGGAGAGUCUUGGCAACUUTT against 1500005I02Rik | inactive: -1.79
GGAAGUUCAAGACAUUGUUTT against Rabgef1 | inactive: 0.527
GGGCAUCAGCAUUUGGUCATT against Pparbp | inactive: 1.17
GGAACUGAAGCUCCUACAATT against 6530418L21Rik | inactive: -2.7
GGCUGGAAAGAGACUUUCCTT against Sah | inactive: -0.611
GGUAUUCUUUGAUAAGAUCTT against Ephb1 | inactive: 0.73
GGUUAUUGAUUUGGUGAAGTT against 4930550L24Rik | inactive: -0.903
GGUUCUUUUUGACGGUGGUTT against Rpl14 | inactive: -3.22
GGAUCAGCAACAGUCUCCATT against 1700029M20Rik | inactive: -0.0631
GCUACUCUCGCCUGUUACATT against Wdr40a | inactive: 0.351
CCCACAGGUUCAAGAACCGTT against Gm608 | inactive: 0.0445
CCUCUGCUACUCUUAUUGUTT against Ttn | inactive: -0.38
GGAGUGAUGUCCAUACUGGTT against Leap2 | inactive: -0.44
GGCUAAAGCGAAAAAAAAGTT against Msl31 | inactive: -0.347
GGAGUUUGUGCAGUUUGUGTT against Nfix | inactive: -0.275
GGGAGAGGAUCAGGUAAACTT against 1500003O03Rik | inactive: -0.0913
CCCUCCGUGUUUUUAAGAUTT against Tbl2 | inactive: -0.15
GGGCUUCUGAAGAAGAUGATT against Cdc25b | inactive: -1.24
GGUGAUGUGCUCCGGUUUATT against Mrs2l | inactive: -0.00496

Sequence | z-score
GGCAAUUAAUUGACAGUUATT against Myf5 | inactive: 0.188
GCAAGGAGUUUAUGUGAGUTT against Olfr170 | inactive: -0.306
GGAACAAAGAGGUUAAAGGTT against Olfr1448 | inactive: 0.0539
GCCCAUCACAAAUAAACAATT against B230340J04Rik | inactive: 1.26
CCACCACAACUAAGUCAGATT against 2310015N07Rik | inactive: 1.08
CCCUGUGAAAUAUUGAUAATT against V1rc15 | inactive: -1.26
GGCACUGAAGGAGAACCUGTT against 4732416F18 | inactive: -0.837
GGAAGUUCGUGUGAAAGUUTT against Uhrf2 | inactive: -1.45
GGUGGAGUUUGUGCAGAAGTT against 2310026J01Rik | inactive: 0.572
GGUGCAGAACUAAUUCCACTT against 9130020L07Rik | inactive: -0.454
GGGAGAGGACGACAUUUACTT against Otx2 | inactive: -0.207
GGUUUUUAUCGACACUAUCTT against Chrna1 | inactive: 0.315
GGUGGUUCCCAAUUCACCUTT against Htra3 | inactive: 0.125
CCCUUUGUAGUUACUAAACTT against Zwint | inactive: 0.291
GGUCUGAAGACAUCCUAGUTT against Pabpc4 | inactive: -0.217
CGGGAUUCUUCUCCUUGAATT against Dnalc4 | inactive: -1.28
GCAAGCUGAGCAUUGAUGATT against Csk | inactive: 0.841
GGAGUACGUGCUAGAUAAGTT against Tram1l1 | inactive: -1.49
CCGUACAUCGAGAAAUACATT against Hal | inactive: -0.297
GCAGUUUUCGCUCUGGUCATT against Cxcl7 | inactive: -2.36
GCGGAUUUAGUGGCUGGCUTT against Opn5 | inactive: -2.04
GCAUCACUGUCUAAACUUGTT against Pgk2 | inactive: 0.482
GCAUAUUAGACACAAGAUATT against Clecsf6 | inactive: 0.176
GGAGCCAAGAACUUUUCAGTT against AI467484 | inactive: -0.188
GUUGACUGUACCCGAUACATT against Mxd3 | inactive: -0.163
GGUAAUCACAUCCCAGGUGTT against Olfr370 | inactive: -0.92

Fetched one by one from above:
Sequence | z-score
CCGUACAUCGAGAAAUACATT against Hal | inactive: -0.297
GGUAAUCACAUCCCAGGUGTT against Olfr370 | inactive: -0.92
GCAAGCUGAGCAUUGAUGATT against Csk | inactive: 0.841
GCAUAUUAGACACAAGAUATT against Clecsf6 | inactive: 0.176

Following part

Sequence | z-score
GUGAUUGCCAAGAAGUUCUTT against Olfr1033 | inactive: -0.0496
GGAAAAGAGCAAACUUAUUTT against Shc3 | inactive: 0.757
GCUCUACGAUGCAGUUUUUTT against Trp53i11 | inactive: 0.795
GCAUCUAUGGUGUUUCCUGTT against 9230106D20Rik | inactive: 0.792
CGGACACACAGUUGAUCCGTT against Cct6b | inactive: -0.174
GGAUAUCAUCAUGUCUUUCTT against Otop1 | inactive: 0.578
GGUGGCCCAGUCUAAAGAATT against R74862 | inactive: -0.481
GGAAUUCAGUGCCUUAAAATT against Pgf | inactive: -0.415
GGAGUUCGCACAGAAAUUCTT against Dhdh | inactive: 2.35
GGACAGGUGAAGAUAAGUATT against Mug2 | inactive: -0.264
GAGAUGCCAUGACAAUGGGTT against 4931422A03Rik | inactive: -1.98
GGAGUCUCUGUCAUGUGAUTT against Tlr2 | inactive: -1.27
GGUUGUGAACAGUCCACCCTT against Ski | inactive: 0.143
GGAAGGACUAUUUUCUUUCTT against 2310001H13Rik | inactive: 0.265
GGCUUUAUCAGAUCCAACCTT against B130017P16Rik | inactive: 3.06
CCAAAUAAUUUCAGGGAAUTT against Vamp1 | inactive: 0.148
GGCUGGCUGGAAAAAAGGUTT against Zfp336 | inactive: -1.03
CGUGGUUCCCAUCAGAAAGTT against 2410116G06Rik | inactive: -1.15
GGCUCUUCCGAGAACAUCCTT against Kcne4 | inactive: 0.507
GGCAGAAUGGCUAUCUAGATT against 1810074P20Rik | inactive: 0.726
GGGACAUGGACAAUAAACCTT against Wnt10a | inactive: 1.46
GGUGCAGACCUCUGACAAATT against Pdlim7 | inactive: 0.291
GGUCUUUGAAUGGAACAAUTT against Aldh7a1 | inactive: 0.00314
GGCAAUUUCCUUAUUAGAUTT against Nol5 | inactive: 1.73
GGAUGUGCUAAUGAGGCCATT against Tjp3 | inactive: -0.389
GGCAUACCUGGAGAAGUGUTT against 2600010E01Rik | inactive: -0.754

Reformatted tab-delimited: entries from further up.
Sequence	z-score
GGUACAGGAAACUCAAAUATT against Lrrc4	inactive: 0.527
GGUUGAAUUAUACACAAAGTT against 4930425N13Rik	inactive: -0.749
GCCACCUUGUUUCUCGAACTT against 1810008A18Rik	inactive: 0.925
GGCAGUCAGACUUAGAGACTT against Dqx1	inactive: -0.303
GGUUUUUGUCACUAUAAGCTT against 4921513B05Rik	inactive: 2.66
